Here are results for one substance from publication PMC2877100.

The chains behind the UniProt entries cited, without tags or fusion partners.
UniProt P18266: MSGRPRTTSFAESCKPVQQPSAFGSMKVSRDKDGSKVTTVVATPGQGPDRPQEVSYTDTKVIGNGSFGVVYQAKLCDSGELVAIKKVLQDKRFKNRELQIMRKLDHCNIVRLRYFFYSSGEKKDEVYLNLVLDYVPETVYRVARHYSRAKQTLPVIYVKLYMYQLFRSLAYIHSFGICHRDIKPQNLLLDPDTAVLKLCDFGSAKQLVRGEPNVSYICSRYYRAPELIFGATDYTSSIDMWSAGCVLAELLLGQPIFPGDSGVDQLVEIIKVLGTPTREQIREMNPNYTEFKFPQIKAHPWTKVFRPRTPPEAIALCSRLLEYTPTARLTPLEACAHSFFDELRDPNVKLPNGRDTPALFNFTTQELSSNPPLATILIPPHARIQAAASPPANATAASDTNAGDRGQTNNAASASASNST
UniProt A0A8I6GM68: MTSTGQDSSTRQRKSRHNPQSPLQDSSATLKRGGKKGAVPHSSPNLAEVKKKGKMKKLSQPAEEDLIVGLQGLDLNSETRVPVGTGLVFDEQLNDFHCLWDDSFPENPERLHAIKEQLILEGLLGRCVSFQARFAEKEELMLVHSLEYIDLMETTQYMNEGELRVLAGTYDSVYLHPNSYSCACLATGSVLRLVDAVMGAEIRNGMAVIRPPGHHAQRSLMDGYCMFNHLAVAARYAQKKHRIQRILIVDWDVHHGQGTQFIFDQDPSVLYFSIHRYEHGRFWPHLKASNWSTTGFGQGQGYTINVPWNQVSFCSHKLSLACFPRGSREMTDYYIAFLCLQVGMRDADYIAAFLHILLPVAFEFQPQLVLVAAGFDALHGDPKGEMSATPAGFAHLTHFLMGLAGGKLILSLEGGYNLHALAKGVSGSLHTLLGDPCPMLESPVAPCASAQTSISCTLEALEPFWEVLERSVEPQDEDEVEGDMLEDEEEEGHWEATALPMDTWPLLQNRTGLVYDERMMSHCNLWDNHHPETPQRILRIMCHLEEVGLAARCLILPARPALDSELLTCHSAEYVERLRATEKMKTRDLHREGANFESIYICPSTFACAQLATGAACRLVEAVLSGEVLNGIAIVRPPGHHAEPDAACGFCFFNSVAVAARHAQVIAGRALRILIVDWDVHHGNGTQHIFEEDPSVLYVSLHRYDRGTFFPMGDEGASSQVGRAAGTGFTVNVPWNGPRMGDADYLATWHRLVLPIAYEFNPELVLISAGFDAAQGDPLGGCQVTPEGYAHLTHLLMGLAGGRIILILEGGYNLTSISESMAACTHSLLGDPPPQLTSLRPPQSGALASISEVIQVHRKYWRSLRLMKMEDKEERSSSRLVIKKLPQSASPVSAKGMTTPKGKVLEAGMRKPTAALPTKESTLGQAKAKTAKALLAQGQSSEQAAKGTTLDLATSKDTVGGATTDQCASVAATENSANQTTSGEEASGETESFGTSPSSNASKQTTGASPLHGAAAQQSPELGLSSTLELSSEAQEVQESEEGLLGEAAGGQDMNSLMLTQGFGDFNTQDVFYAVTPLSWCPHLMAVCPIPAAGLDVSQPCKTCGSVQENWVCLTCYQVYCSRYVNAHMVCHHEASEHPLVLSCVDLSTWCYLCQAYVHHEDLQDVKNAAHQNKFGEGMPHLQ

These are yes or no findings as the source states them, for the method shown. In cells and extracts the contact can be indirect. Some binding calls cover weakened binding; strength is not graded here.

For this assay, the target named is Glycogen Synthase Kinase 3β (GSK3β) (rat (endogenous in hippocampal neuronal cultures)) (UniProt P18266). The assay can be described thus: co-IP; immunoprecipitation of endogenous GSK3β and of HDAC6 from hippocampal neurons; conditions not described.

For the substance “Histone deacetylase 6 (HDAC6) (from UniProt A0A8I6GM68 1-1183) (enzyme)”, the binding result was “binds”.
